These are yes or no findings as the source states them, for the method shown. In cells and extracts the contact can be indirect. Some binding calls cover weakened binding; strength is not graded here. Tags and fused reporters may be left off the sequences shown.

Sequences of proteins named here, by UniProt entry; tags and fusion partners are left off.
UniProt Q00444: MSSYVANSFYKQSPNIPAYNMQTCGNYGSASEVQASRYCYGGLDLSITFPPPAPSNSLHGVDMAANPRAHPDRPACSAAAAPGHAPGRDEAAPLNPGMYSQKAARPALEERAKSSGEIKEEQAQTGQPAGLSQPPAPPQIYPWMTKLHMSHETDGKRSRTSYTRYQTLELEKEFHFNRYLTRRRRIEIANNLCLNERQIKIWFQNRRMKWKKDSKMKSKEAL

One assay has as its target T1, V5-tagged Meis1 (human) (UniProt O00470).
T1 sequence: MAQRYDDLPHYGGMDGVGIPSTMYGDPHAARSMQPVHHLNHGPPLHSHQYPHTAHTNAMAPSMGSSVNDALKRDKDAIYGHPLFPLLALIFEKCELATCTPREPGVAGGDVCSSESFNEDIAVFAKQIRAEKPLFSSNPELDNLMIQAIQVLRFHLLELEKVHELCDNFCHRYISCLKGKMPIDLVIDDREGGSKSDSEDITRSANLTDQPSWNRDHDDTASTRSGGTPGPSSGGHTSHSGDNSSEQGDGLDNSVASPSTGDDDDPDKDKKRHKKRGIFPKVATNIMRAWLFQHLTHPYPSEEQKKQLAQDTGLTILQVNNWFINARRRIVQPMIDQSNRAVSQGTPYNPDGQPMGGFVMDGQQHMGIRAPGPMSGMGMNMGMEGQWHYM
Put plainly: co-IP; immunoprecipitation of V5-tagged Meis1-3, Flag-tagged HoxC5 detected (Supplementary Fig. 7e).

Another assay has as its target T2, V5-tagged Meis2 (human) (UniProt O14770).
T2 sequence: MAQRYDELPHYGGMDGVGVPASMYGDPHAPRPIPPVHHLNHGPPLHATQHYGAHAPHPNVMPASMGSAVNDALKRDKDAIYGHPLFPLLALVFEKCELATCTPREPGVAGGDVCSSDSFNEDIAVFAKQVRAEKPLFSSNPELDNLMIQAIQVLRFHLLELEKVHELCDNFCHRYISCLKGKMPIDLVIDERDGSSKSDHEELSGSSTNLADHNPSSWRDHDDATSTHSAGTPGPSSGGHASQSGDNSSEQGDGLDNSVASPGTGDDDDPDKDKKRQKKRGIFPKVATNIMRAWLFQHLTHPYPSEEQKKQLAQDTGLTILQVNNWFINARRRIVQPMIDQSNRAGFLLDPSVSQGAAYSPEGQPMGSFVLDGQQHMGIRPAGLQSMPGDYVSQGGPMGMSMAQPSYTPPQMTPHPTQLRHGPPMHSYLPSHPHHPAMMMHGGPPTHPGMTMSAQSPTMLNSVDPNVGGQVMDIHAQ
The description is as above.

The target in a further assay is T3, V5-tagged Meis3 (human) (UniProt Q99687).
T3 sequence: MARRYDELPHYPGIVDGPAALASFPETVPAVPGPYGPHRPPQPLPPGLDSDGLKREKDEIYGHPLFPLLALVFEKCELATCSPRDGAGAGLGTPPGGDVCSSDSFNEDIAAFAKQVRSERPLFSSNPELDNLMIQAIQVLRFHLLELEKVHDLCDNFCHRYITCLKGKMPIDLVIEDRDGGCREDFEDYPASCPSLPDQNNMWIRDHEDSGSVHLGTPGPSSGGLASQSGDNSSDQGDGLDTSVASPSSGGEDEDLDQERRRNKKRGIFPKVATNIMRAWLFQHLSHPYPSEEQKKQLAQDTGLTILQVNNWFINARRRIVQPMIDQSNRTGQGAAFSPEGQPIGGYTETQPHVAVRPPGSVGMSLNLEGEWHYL
The assay is described as above.

In another assay the target is T4, Flag-tagged Pbx1 (human) (UniProt P40424).
T4 sequence: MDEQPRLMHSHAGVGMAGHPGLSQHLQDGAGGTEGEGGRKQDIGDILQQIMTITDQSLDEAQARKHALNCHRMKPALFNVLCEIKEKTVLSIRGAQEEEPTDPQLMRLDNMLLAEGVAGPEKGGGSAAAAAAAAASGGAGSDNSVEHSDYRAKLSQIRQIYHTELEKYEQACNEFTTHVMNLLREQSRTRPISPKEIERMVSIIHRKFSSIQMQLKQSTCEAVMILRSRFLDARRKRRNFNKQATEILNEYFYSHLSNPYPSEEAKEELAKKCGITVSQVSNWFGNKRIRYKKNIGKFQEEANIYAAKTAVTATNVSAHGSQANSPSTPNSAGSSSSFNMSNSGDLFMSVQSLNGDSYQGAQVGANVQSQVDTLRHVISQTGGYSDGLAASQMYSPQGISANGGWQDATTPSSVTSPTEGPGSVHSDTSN
Put plainly: co-IP; immunoprecipitation of Flag-tagged Pbx1-4, V5-tagged HoxC5 detected (Supplementary Fig. 7d).

In another assay the target is T5, Flag-tagged Pbx2 (human) (UniProt P40425).
T5 sequence: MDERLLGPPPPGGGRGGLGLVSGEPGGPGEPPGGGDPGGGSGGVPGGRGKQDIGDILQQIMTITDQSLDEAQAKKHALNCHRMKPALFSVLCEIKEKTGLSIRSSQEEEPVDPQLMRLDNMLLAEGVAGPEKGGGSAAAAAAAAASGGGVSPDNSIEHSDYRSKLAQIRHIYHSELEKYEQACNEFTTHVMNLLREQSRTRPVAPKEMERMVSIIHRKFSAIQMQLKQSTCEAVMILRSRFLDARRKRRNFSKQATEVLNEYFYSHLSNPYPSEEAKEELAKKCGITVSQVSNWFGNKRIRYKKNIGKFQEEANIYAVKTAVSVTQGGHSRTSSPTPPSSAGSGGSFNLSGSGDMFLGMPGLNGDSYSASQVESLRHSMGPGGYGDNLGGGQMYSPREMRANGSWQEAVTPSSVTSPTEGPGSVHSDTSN
Described as above.

Another assay has as its target T6, Flag-tagged Pbx3 (human) (UniProt P40426).
T6 sequence: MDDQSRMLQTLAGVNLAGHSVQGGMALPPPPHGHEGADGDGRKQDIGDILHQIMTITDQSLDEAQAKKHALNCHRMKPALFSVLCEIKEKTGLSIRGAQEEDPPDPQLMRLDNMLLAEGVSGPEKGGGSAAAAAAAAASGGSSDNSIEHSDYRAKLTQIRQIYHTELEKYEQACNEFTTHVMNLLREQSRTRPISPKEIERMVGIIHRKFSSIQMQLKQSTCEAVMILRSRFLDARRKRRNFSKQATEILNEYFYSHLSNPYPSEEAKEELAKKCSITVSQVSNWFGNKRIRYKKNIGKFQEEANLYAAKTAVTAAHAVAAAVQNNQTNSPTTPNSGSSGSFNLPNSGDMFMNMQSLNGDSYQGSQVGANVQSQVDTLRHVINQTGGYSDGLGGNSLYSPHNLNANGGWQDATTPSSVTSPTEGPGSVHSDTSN
Described as above.

In another assay the target is T7, Flag-tagged Pbx4 (human) (UniProt Q9BYU1).
T7 sequence: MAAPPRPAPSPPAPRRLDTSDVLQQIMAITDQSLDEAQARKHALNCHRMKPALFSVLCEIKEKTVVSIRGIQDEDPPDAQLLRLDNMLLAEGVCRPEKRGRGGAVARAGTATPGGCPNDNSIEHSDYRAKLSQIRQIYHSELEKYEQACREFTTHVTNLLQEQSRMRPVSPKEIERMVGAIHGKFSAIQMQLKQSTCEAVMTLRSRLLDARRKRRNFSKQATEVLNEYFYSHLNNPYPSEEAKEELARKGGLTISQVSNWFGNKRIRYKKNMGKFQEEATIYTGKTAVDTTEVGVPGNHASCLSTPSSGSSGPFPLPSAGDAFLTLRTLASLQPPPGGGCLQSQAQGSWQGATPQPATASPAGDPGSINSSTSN
Described as above.

As to “Flag-tagged HoxC5 (from UniProt Q00444 1-222)”, the binding result is given as “no binding” in the assay with V5-tagged Meis1 (human), “no binding” in the assay with V5-tagged Meis2 (human) and “binds” with V5-tagged Meis3 (human).

“V5-tagged HoxC5 (from UniProt Q00444 1-222)”: the binding entry is recorded as “no binding” with Flag-tagged Pbx1 (human), “no binding” in the assay with Flag-tagged Pbx2 (human), “no binding” in the assay with Flag-tagged Pbx3 (human) and “binds” with Flag-tagged Pbx4 (human).
